# Library screen at single concentrations

Measurements from “University of Dundee, Small-Polar-MMV Screening Library” (2021), ChEMBL document CHEMBL3988442.

The filed quantity is “Percent Effect” (%).
The record does not define 0% and 100%; most values in the screen are far below 50% and negative numbers occur (in some assays of this library far below -100).
The compounds are a random part of those screened.

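Whole-parasite assay of Trypanosoma brucei over 72 hours; the read-out is not stated. Tested at 30 µM. The record gives no direction; compounds that gave an IC50 in retests scored well above the rest, so higher reads as stronger inhibition. Values scatter widely below zero; nearly all retest evidence comes from the higher of the two concentrations used. Of about 64,000 compounds tested this way, about 940 (1.5%) reached 50% or more in at least one test.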

CC(=O)N1CCCCC12CCCN(Cc1ccco1)C2.O=C(O)C(F)(F)F (stereo not drawn) gave 5.13%.
CC(C)(C)c1cn(C2CCN(C3CCSC3)CC2)nn1 (stereo not drawn) gave -11.84%.
Cc1ccc(CN(C)CC(=O)NC2(C)CCS(=O)(=O)C2)cc1 (stereo not drawn) gave -23.27%.
CCc1nc(CNC2CCN(c3ccc(OC)cc3)CC2)cs1 gave 4.56%.
[H][C@@]12CN(Cc3ccc(C)s3)C[C@]1([H])C(=O)N(CC1CCN(C)CC1)C2 gave -6.541%.
CCCOc1ccc(Cl)cc1CNc1ncnc2oc(C)nc12 gave 18.57%.
Oc1ccccc1-c1n[nH]c(C2CC2)n1 gave -50.08%.
CCNC(=O)[C@@H]1C[C@H](N)CN1Cc1ccc(-c2ccccc2C#N)o1 gave -20.84%.
CCc1noc(C(C)N2CCN(Cc3noc(C4CC4)n3)CC2)n1 (stereo not drawn) gave -57.98%.
CC(C)Cc1cc(CNC(=O)c2ccccc2C2CCNC2)no1 (stereo not drawn) gave -25.71%.
Cc1ccc(CNC(=O)NCCCO)cc1 gave -1.898%.
O=C(COc1ccccc1)NS(=O)(=O)Cc1ccccc1 gave 6.854%.
Cn1ncc(C(=O)N2CCOCC2)c1Cl gave -30.8%.
Cc1ccc(NCCCNC(=O)C2CC3(CCNCC3)CN2C)nc1 (stereo not drawn) gave 13.95%.
CCCn1[nH]cc/c1=N\C(=O)CN1CCCC1Cn1cc(C)cn1 (stereo not drawn) gave 2.384%.
[H][C@@]12CN(Cc3cccc(CN4CCOCC4)c3)C[C@]1(C(=O)O)CNC2=O gave -5.893%.
CC(C)N(CCS(C)(=O)=O)Cc1csc(Cc2ccc(Cl)cc2)n1 gave -32.39%.
CN(C)c1nc2c(c(N3CCC(O)CC3)n1)CN(CC1CCOC1)CC2 (stereo not drawn) gave -49.87%.
Cc1cnc(N2C(=O)CSC2c2ccccc2)s1 (stereo not drawn) gave -31.91%.
CN(C)c1cncc(C2CCCN(c3cnccn3)C2)n1 (stereo not drawn) gave 22.49%.
COC(=O)c1ccc(Cl)c(NS(=O)(=O)c2cnn(C)c2)c1 gave -18.15%.
Cc1ccc(S(=O)(=O)NCCNC(=O)c2ccoc2)cc1F gave 4.623%.
Fc1ccccc1CN1CCCC2(CCN(c3ncccn3)C2)C1 (stereo not drawn) gave 102.7%.
CCCc1cnc(C)nc1N1CCC(Cn2cc(C(C)O)nn2)CC1 (stereo not drawn) gave -56.45%.
CCCN(Cc1cccnc1)C1CC(C)(C)NC(C)(C)C1.O=C(O)CC(O)(CC(=O)O)C(=O)O gave 3.437%.
O=C(NC1(C(=O)NCC2CC2)CCCC1)C1Cc2cc(F)ccc2O1 (stereo not drawn) gave -21.12%.
O=C(Nc1cnc2n1CCCC2)c1cccc(-n2cnnc2)c1 gave -40.82%.
O=C(NCCNC(=O)c1scnc1Cl)c1cccs1 gave 1.352%.
Cc1nnc2ccc(OCCNS(C)(=O)=O)nn12 gave -20.06%.
CCNC(=O)NC1CN(Cc2ccncc2Cl)C[C@@H]1OC (stereo partly drawn) gave -14.24%.
Cc1cc(C)n(C2CCCN(C(=O)Cc3csc(C)n3)C2)n1 (stereo not drawn) gave 32.16%.
CCn1ncc(Cl)c1CN(C)C(=O)CCn1ncc(Br)c1C gave 6.179%.
Cc1occc1C(=O)N1CCC2(CC1)CN(Cc1nccs1)CCO2.O=C(O)C(F)(F)F gave -29.48%.
CCc1nsc(N2CCN(Cc3ccno3)CC2)n1 gave -46.11%.
CC(C)N(C)CC(=O)NCCc1nc(C(F)(F)F)cs1 gave 14.7%.
COc1ccc(NC(=O)N2CCN(CCSc3ccccc3)CC2)cc1 gave 6.495%.
Cc1ccc(C)c(SCC(=O)Nc2cccc(C(=O)N(C)C)n2)c1 gave -90.24%.
CCS(=O)(=O)N1CCc2cc(C(=O)NC)c(NCC3CC3)nc2CC1 gave -19.03%.
CC(CN1CCOCC1)N(Cc1ccccc1)Cc1ccncc1 (stereo not drawn) gave -17.06%.
O=C(c1[nH]nc(C2CC2)c1Cl)N1CCN(C2CC2)CC1 gave -25.04%.
Cc1cc(C)nc(NCc2cc3n(n2)CCCN(C(=O)C2CCC2)C3)n1 gave -8.476%.
Cc1ccc(F)cc1NC(=O)C1CCCN1C(=O)C(C)C (stereo not drawn) gave -20.33%.
Cc1cccc(-c2noc(CN3CCc4nn(C)c(=O)cc4C3)n2)c1 gave 7.499%.

The first 2 entries again:

With CC(=O)N1CCCCC12CCCN(Cc1ccco1)C2.O=C(O)C(F)(F)F (stereo not drawn) the screen gave 5.13%.
With CC(C)(C)c1cn(C2CCN(C3CCSC3)CC2)nn1 (stereo not drawn) the screen gave -11.84%.